Record: PubChem BioAssay AID504786 (Drosophila RNAi Screening Center, 2011)
The screen tested about 21,000 reagents; below is a random part of those with a known target gene and a result. 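Primary screen; positive scores mean lost reporter signal, so the sign may be inverted from the usual convention.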 Reagent sequences are not shown.

- Purpose: 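Positive regulators of HIF-driven reporter output in Drosophila cells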 (primary screen)
- Cell system: Drosophila S2 cells with a stable HIF luciferase reporter
- Knock-down reagent: long dsRNA against Drosophila genes, about 0.2 µg dsRNA per well of a 384-well plate
- Duration: three days of knock-down, then 20 h of DFO before reading
- Conditions: desferrioxamine (DFO) at 100 µM, an iron chelator that mimics hypoxia, for 20 h
- Read-out: 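Firefly luciferase driven by the mouse ldh-a hypoxia-response element, measured after 20 h of 100 µM DFO; z-scores per plate, higher means more signal lost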
- Scale: z-score: higher = stronger loss of HIF reporter signal

Depletion of Usp39 [DRSC20032] resulted in: z-score, replicate 1 = 0.3; z-score, replicate 2 = 1.1.
CG14715 [DRSC14938] scored z-score, replicate 1 = -0.3; z-score, replicate 2 = -0.6.
t [DRSC17815] gave z-score, replicate 1 = -0.3; z-score, replicate 2 = -0.5.
CG34228 [DRSC05300] showed z-score, replicate 1 = -0.1; z-score, replicate 2 = -0.2.
For timeout [DRSC12950], the values are z-score, replicate 1 = -0.1; z-score, replicate 2 = -0.3.
timeout [DRSC17078] gave z-score, replicate 1 = 0.4; z-score, replicate 2 = 0.4.
For timeout [DRSC17079] the deposit lists z-score, replicate 1 = -0.1; z-score, replicate 2 = 0.
After knock-down of timeout [DRSC17080], the record shows z-score, replicate 1 = -0.1; z-score, replicate 2 = -0.2.
Knock-down of timeout [DRSC17081] gave: z-score, replicate 1 = -0.2; z-score, replicate 2 = -0.2.
Depletion of CG14720 [DRSC14942] gave: z-score, replicate 1 = -0.3; z-score, replicate 2 = -0.5.

Not a retest: an excerpt of the list.
CG14715 [DRSC14938] — z-score, replicate 1: -0.3; z-score, replicate 2: -0.6
t [DRSC17815] — z-score, replicate 1: -0.3; z-score, replicate 2: -0.5

Continued:
CG31516 [DRSC11994] scored z-score, replicate 1 = -0.2; z-score, replicate 2 = -0.3.
With knock-down of eIF1A [DRSC16937], the record shows z-score, replicate 1 = 3.4; z-score, replicate 2 = 4.7.
Srlp [DRSC15890] showed z-score, replicate 1 = 2.2; z-score, replicate 2 = 2.5.
polybromo [DRSC14307] scored z-score, replicate 1 = 0.3; z-score, replicate 2 = 0.5.
With knock-down of FarO [DRSC18475], the screen gave z-score, replicate 1 = -0.4; z-score, replicate 2 = -0.5.
Against CG11369 [DRSC17779] the deposit lists z-score, replicate 1 = -0.3; z-score, replicate 2 = -0.8.
